Values from PubChem BioAssay AID504804 (Drosophila RNAi Screening Center, 2011)
The deposit covers about 19,000 reagents; shown is an unselected part of those with a known target gene and a result. Of all reagents, 47 (0.25%) got an active call. 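Signals are raw, not normalised; exact z-scores behind calls not deposited; actives needed confirmation, so some wells reaching 2 SD are inactive.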 The numbers tell different reagents against one gene apart.

- Assay: 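dsRNAs that improve Kc cell survival under doxorubicin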 (primary screen)
- System: Drosophila Kc cells
- Knock-down reagent: long dsRNA against Drosophila genes, 0.5 µg dsRNA per well
- Timing: 96 h (48 h knock-down, then 48 h drug)
- Conditions: doxorubicin 5 µg/ml for 48 h, added 48 h after dsRNA
- Measurement: 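Luminescent ATP counts per replicate, not normalised, reflecting viable cells after 48 h dsRNA knock-down followed by 48 h of 5 µg/ml doxorubicin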
- Scale: raw ATP luminescence: higher = more viable cells, protection from doxorubicin
- Hit rule: 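Active when both duplicate wells lie at least 2 SD above the plate mean and protection is confirmed by rescreening and independent dsRNAs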

The opening 2 records, to show the layout:
CG16813: raw ATP luminescence, replicate 1 = 66310; raw ATP luminescence, replicate 2 = 82833; Call = inactive
CG14252: raw ATP luminescence, replicate 1 = 57990; raw ATP luminescence, replicate 2 = 40910; Call = inactive

The listing, repeating the preview:
CG16813: raw ATP luminescence, replicate 1 = 66310; raw ATP luminescence, replicate 2 = 82833; Call = inactive
CG14252: raw ATP luminescence, replicate 1 = 57990; raw ATP luminescence, replicate 2 = 40910; Call = inactive
Pgls: raw ATP luminescence, replicate 1 = 3.49e5; raw ATP luminescence, replicate 2 = 3.68e5; Call = inactive
Pif1: raw ATP luminescence, replicate 1 = 1.12e5; raw ATP luminescence, replicate 2 = 61970; Call = inactive
Skeletor (retired record) #1: raw ATP luminescence, replicate 1 = 68947; raw ATP luminescence, replicate 2 = 48550; Call = inactive
Skeletor (retired record) #2: raw ATP luminescence, replicate 1 = 37623; raw ATP luminescence, replicate 2 = 20737; Call = inactive
CG2225 #1: raw ATP luminescence, replicate 1 = 67047; raw ATP luminescence, replicate 2 = 59833; Call = inactive
CG2225 #2: raw ATP luminescence, replicate 1 = 50360; raw ATP luminescence, replicate 2 = 47270; Call = inactive
Cdc7 #1: raw ATP luminescence, replicate 1 = 31570; raw ATP luminescence, replicate 2 = 30950; Call = inactive
Cdc7 #2: raw ATP luminescence, replicate 1 = 23980; raw ATP luminescence, replicate 2 = 39940; Call = inactive
nis: raw ATP luminescence, replicate 1 = 91790; raw ATP luminescence, replicate 2 = 78960; Call = inactive
PIG-U: raw ATP luminescence, replicate 1 = 91460; raw ATP luminescence, replicate 2 = 1.06e5; Call = inactive
